{
  "source": "PubChem BioAssay AID504444",
  "about": "(National Center for Advancing Translational Sciences (NCATS), 2011)",
  "note": "Where “and” joins values, the source holds several entries; their conditions need not be identical. Identical values can stand only once. Screen size: about 360,000 compounds; about 7,500 (2.1%) were called active. Inconclusive results, whose numbers are uncertain, are shown with a selection of clear calls. The call rests on the fitted dose curve; in most records, active means well fitted inhibition curve with a large enough effect; inconclusive means small, poorly fitted or top-dose-only effect, or effect the other way; inactive means flat fitted curve, though single readings scatter. A potency beside an inconclusive call is a rough fit, not a confirmed value. Potency means the concentration at half of the fitted maximal effect.",
  "data": [
    {"assay": "Nrf2 qHTS screen for inhibitors; further: nearly all actives have a fitted effect of over 60% in size", "conditions": "A549 ARE-Fluc reporter, luciferase luminescence, 18-24 h; series mostly up to 46 µM", "outline": "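In this cell-based qHTS, ARE-driven firefly luciferase in A549 cells reports Nrf2 activity; the luminescent signal after BugLite lysis is the measured value, with a prior CellTiter-Fluor read for cell health.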", "values": [
      {"compound": "CCOc1ccc(CCNC(=O)c2cn(C)c3ccc(S(=O)(=O)N4CCOCC4)cc3c2=O)cc1OCC", "Potency": "inactive and inconclusive: 2.91 µM [activator, full curve]"},
      {"compound": "COc1ccccc1-n1c(SCC(=O)NCC2CCCO2)nc2c([nH]c3ccccc32)c1=O", "note": "(stereo not drawn)", "Potency": "inactive"},
      {"compound": "COc1cc(/C=C(\\C(=O)O)c2ccc(S(=O)(=O)N3CCCC3)s2)ccc1OCCC(C)C", "Potency": "inconclusive: 13 µM [falling, partial curve]"},
      {"compound": "CN(C)CCN(C(=O)c1ccc(Br)s1)c1nc2cc3c(cc2s1)OCCO3", "Potency": "inconclusive: 9.2 µM [activator, partial curve]"},
      {"compound": "COCC(=O)Nc1nc(-c2ccc(-c3ccccc3)cc2)cs1", "Potency": "inconclusive: 10.3 µM [activator, partial curve]"},
      {"compound": "O=C(CSc1ccc2nnc(-c3cccc(F)c3)n2n1)NCc1ccco1", "Potency": "inconclusive: 0.0065 µM [falling, full curve, poor fit]"},
      {"compound": "Cc1cc(Cl)ccc1Oc1ncc(CN2CCN(c3ccccc3)CC2)s1", "Potency": "inconclusive: 16.4 µM [falling, partial curve, poor fit]"},
      {"compound": "O=C(N/N=C/C(Cl)=C/c1ccccc1)c1ccccn1", "Potency": "inconclusive: 4.11 µM [activator, partial curve]"},
      {"compound": "Cc1ccc(-c2cc(C(=O)N/N=C/C=C/c3ccccc3)n[nH]2)s1", "Potency": "inactive"},
      {"compound": "CCCc1cc2c(cc1NC(=O)c1ccccc1F)OCO2", "Potency": "inconclusive: 14.6 µM [activator, partial curve]"},
      {"compound": "CCCOc1ccc(-c2nnc(-c3ccco3)o2)cc1", "Potency": "inconclusive: 0.082 µM [activator, full curve, poor fit]"},
      {"compound": "Cc1[nH]n(-c2cccc(Cl)c2)c(=O)c1C=NCC(C)C", "Potency": "inconclusive: 10.3 µM [activator, partial curve]"},
      {"compound": "Cc1cc(S(=O)(=O)N(Cc2ccc(C(C)(C)C)cc2)Cc2cccs2)ccc1-n1cnnn1", "Potency": "inconclusive: 20.6 µM [falling, single point]"},
      {"compound": "COc1ccccc1N1CCN(C(=O)c2cc3c(s2)CCCCC3)CC1", "Potency": "inconclusive: 23.1 µM [falling, partial curve, poor fit]"},
      {"compound": "Cc1cc(NS(=O)(=O)c2ccc(NC(=O)c3ccccc3F)cc2)nc(C)n1", "Potency": "inactive"},
      {"compound": "COc1ccc(Nc2oc(-c3ccc(OC)cc3)nc2C#N)cc1", "Potency": "inconclusive: 18.4 µM [activator, single point]"},
      {"compound": "CCCn1c(SCC(=O)c2[nH]c(C)c(C(C)=O)c2C)n[nH]c1=O", "Potency": "inactive"},
      {"compound": "COc1ccc(-c2ccnc3nc(-n4cccc4)nn23)cc1", "Potency": "inconclusive: 3.66 µM [falling, single point]"}
    ]}
  ]
}
